Measurements: publication doi:10.1101/2020.03.25.006957
Results are given in words; binding and its absence hold for the method and conditions named. In cells and extracts the contact can be indirect. These calls come from enrichment with a bait or labelling near it, and not all partners need be listed. Blank lines part the entries; values can stand above or below the molecule they belong to.

Tests used:
Test in all cases: affinity purification with mass spectrometry
[1] = molecular target: T1, MeGBSSI (cassava granule-bound starch synthase I) (cassava, Manihot esculenta (endogenous in storage roots)) (UniProt Q43784)
T1 sequence: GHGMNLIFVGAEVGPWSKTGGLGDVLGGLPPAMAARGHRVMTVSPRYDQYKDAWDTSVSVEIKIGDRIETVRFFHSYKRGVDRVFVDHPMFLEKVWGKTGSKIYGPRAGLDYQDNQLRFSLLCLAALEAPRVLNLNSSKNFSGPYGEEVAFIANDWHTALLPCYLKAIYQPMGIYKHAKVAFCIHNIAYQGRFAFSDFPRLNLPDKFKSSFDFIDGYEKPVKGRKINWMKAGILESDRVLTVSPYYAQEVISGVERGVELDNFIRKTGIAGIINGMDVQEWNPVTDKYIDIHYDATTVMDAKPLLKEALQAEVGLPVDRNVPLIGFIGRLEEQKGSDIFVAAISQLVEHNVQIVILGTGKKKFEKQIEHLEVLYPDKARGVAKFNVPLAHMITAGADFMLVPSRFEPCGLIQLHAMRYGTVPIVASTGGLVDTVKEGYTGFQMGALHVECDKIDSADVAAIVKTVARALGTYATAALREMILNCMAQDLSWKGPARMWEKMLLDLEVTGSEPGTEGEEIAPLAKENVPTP

[2] = molecular target: MeSSII (cassava soluble starch synthase II) (cassava, Manihot esculenta (endogenous in storage roots))
[3] = molecular target: MeSBEII (cassava starch branching enzyme II) (cassava, Manihot esculenta (endogenous in storage roots))
[4] = molecular target: MeSSI (cassava soluble starch synthase I) (cassava, Manihot esculenta (endogenous in storage roots))
[5] = molecular target: MeISAI (cassava isoamylase I) (cassava, Manihot esculenta (endogenous in storage roots))
[6] = molecular target: MeISAII (cassava isoamylase II) (cassava, Manihot esculenta (endogenous in storage roots))
[7] = molecular target: MeSBEI (cassava starch branching enzyme I) (cassava, Manihot esculenta (endogenous in storage roots))

binding [1]: binds
Molecule: MeSBEI (cassava starch branching enzyme I)

binding [1]: binds
Molecule: Pyruvate orthophosphate dikinase (MePPDK) (enzyme)

binding [1]: binds
Molecule: MeISAI (cassava isoamylase I) (enzyme)

binding [1]: binds
Molecule: MeSSII (cassava soluble starch synthase II) (enzyme)

binding [1]: binds
Molecule: MeISAII (cassava isoamylase II) (enzyme)

binding [1]: binds
Molecule: Starch phosphorylase (MePho) (enzyme)

binding [1]: binds
Molecule: 14-3-3 protein

binding [1]: binds
Molecule: MeAGPase (enzyme)

binding [1]: binds
Molecule: MeSuS (enzyme)

binding [1]: binds
Molecule: MeSSI (cassava soluble starch synthase I) (enzyme)

binding [1]: binds
Molecule: MeSBEII (cassava starch branching enzyme II)

binding [2]: binds
binding [3]: binds
binding [4]: binds
binding [5]: binds
binding [6]: binds
binding [7]: binds
B1: MeGBSSI (cassava granule-bound starch synthase I) (enzyme, UniProt Q43784 79-608)
chain: T1 sequence
